Tests used:
[1] = Maillard reaction products with glucose, optical density at 400 nm; details: 50° C., 18 h; for OD 400 nm of Maillard reaction products: with glucose 250 mg/ml, compound 500 mM
[2] = Maillard reaction products with sorbitol (non-reducing sugar), optical density at 400 nm; details: with sorbitol 250 mg/ml, compound 500 mM, 50° C., 18 h
[3] = Glycation of peptides and amino acid analogues by DHA, loss of free amino group by HPLC; details: part A: compound alone, DHA in PBS, 5 hours, 60° C.

SMILES	OD 400 nm of Maillard reaction products [1]	OD 400 nm of Maillard reaction products [2]	% reacted (amino groups reacted with DHA) [3]	also measured
CC(N)C(=O)O (racemic) [D, L-alanine]	0.266	0.008		
NCCC(=O)N[C@H](Cc1c[nH]cn1)C(=O)O [Beta-Ala-D-His-OH, beta-alanyl-D-histidine]			26%	
CC(=O)N[C@@H](CCCCN)C(=O)N[C@@H](Cc1c[nH]cn1)C(N)=O [Ac-Lys-His-NH2]			25%	
CNC(=O)[C@H](CCCCN)NC(C)=O [AC-Lys-NH2 Me, Ac-Lys-NHMe]			21%	
NCCC(=O)O [beta-alanine]	1.240	0.010		
NCCCC[C@H](NC(=O)OCc1ccccc1)C(=O)O [Z-Lys-OH, N-alpha-carbobenzox-yl-lysine]			3%	
N=C(N)NCCC[C@H](N)C(=O)O [L-arginine]	0.469	0.010		
NCCC(=O)N[C@@H](Cc1c[nH]cn1)C(=O)O [carnosine, β-alanyl-L-histidine]	8.455	0.209	26%	OD 400 nm ([1]; compound + PBS, no sugar): 0.041; Maillard reaction product formed relative to L-lysine ([1]; glucose): approximately 2 times; Maillard reaction product formed relative to beta-alanine ([1]; glucose): ~8 times
NCCCC(=O)N[C@@H](Cc1c[nH]cn1)C(=O)O [Gamma-aminobutyryl-His-OH, gamma-amino-butyryl-L-histidine]			15%	
c1c[nH]cn1 [imidazole]	0.046	0.035		
NCCC(=O)NCC(=O)O [Beta-Ala-Gly-OH, beta-alanyl-glycine]			2%	
NCCCC[C@H](N)C(=O)O [L-lysine]	170	0.009	17%	
